Test results as given in article PMC11294477.
No constants are given. Whether binding was seen depends on the method and setting. In cells and extracts the contact can be indirect. Binding calls can cover weak binding; strength is not graded here. Sequences can lack the tags named with a protein.

Molecular target: T1, LPHN2-GFP (UniProt O95490)
T1 sequence: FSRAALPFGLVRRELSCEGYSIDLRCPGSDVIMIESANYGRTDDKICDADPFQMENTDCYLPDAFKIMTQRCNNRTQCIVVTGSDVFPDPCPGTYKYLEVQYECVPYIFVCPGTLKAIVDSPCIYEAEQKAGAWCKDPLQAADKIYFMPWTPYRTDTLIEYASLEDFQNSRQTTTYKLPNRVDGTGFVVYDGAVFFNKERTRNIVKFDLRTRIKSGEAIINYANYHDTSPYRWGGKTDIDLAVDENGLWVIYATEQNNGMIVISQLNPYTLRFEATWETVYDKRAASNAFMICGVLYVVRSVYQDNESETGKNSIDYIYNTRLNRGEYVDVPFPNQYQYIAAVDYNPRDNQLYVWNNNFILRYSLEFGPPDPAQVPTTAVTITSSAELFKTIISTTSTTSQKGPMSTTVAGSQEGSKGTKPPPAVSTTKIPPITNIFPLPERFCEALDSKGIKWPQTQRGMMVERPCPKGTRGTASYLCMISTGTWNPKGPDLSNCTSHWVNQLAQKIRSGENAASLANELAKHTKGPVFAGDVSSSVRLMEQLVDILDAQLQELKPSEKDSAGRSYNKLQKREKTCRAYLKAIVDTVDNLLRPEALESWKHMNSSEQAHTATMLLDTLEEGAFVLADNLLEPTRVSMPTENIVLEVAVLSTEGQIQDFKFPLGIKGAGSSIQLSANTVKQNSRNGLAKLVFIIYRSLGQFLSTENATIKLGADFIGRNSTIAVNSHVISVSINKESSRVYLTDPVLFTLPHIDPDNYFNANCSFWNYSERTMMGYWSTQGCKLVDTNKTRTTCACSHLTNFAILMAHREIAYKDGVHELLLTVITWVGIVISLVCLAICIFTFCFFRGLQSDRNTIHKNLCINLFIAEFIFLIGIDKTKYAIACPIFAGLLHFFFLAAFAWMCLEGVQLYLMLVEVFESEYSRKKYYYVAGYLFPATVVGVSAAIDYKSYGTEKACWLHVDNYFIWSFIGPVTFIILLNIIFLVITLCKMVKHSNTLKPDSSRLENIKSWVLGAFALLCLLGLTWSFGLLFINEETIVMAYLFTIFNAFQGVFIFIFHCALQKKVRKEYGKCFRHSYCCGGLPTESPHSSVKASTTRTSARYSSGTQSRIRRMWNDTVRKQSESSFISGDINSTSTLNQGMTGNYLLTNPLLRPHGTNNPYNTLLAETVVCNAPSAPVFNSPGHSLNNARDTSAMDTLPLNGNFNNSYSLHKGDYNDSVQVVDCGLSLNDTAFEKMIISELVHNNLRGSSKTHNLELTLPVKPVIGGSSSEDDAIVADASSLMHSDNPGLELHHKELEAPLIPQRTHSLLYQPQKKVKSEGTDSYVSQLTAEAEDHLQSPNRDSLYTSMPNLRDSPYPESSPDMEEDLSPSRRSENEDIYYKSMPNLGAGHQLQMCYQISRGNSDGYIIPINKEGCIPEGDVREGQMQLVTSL
Test: co-IP; LPHN2-GFP with Gα proteins containing internal GluGlu epitope tags

binding: binds
Substance: GluGlu-tagged Gi2 (human)
